Measured data: PubChem BioAssay AID1259425 (University of Nebraska Medical Center, 2018)
The deposit covers about 14,000 reagents; shown is an unselected part. Not all columns of the deposit are shown. Not given: the time to read-out.

- Assay: 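Seek colon cancer weak points whose silencing resembles KSR1 loss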 (primary screen)
- System: HCT116 human colon cancer cells
- Reagents: siRNA pool against human genes, 50 nM siRNA
- Detection: 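mRNA of six signature genes measured together by branched-DNA assay after 50 nM siRNA pool, blank removed, divided by geometric mean of two housekeeping genes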
- Reading the numbers: BNIP3L mRNA: higher = more BNIP3L transcript after knockdown

KRT23 (GeneID 25984): BNIP3L mRNA, set 1 = 0.0517
PPP4C (GeneID 5531): BNIP3L mRNA, set 1 = 0.0433
NUDT12 (GeneID 83594): BNIP3L mRNA, set 1 = 0.102
IMPA2 (GeneID 3613): BNIP3L mRNA, set 1 = 0.116
SIN3A (GeneID 25942): BNIP3L mRNA, set 1 = 0.38
GPR3 (GeneID 2827): BNIP3L mRNA, set 1 = 0.144
RPL7A (GeneID 6130): BNIP3L mRNA, set 1 = 0.207
BCL2L13 (GeneID 23786): BNIP3L mRNA, set 1 = 0.0789
DIABLO (GeneID 56616): BNIP3L mRNA, set 1 = 0.0642
RBL2 (GeneID 5934): BNIP3L mRNA, set 1 = 0.0543
E2F5 (GeneID 1875): BNIP3L mRNA, set 1 = 0.0705
FBLN5 (GeneID 10516): BNIP3L mRNA, set 1 = 0.0643
CNGA2 (GeneID 1260): BNIP3L mRNA, set 1 = 0.322
NCOA2 (GeneID 10499): BNIP3L mRNA, set 1 = 0.0485
SLC25A12 (GeneID 8604): BNIP3L mRNA, set 1 = 0.133
RTL9 (GeneID 57529): BNIP3L mRNA, set 1 = 0.0518
NR1D1 (GeneID 9572): BNIP3L mRNA, set 1 = 0.122
TUBA1C (GeneID 84790): BNIP3L mRNA, set 1 = 0.186
ATAD3B (GeneID 83858): BNIP3L mRNA, set 1 = 0.181
SOX8 (GeneID 30812): BNIP3L mRNA, set 1 = 0.0756

Taken from above.
TUBA1C (GeneID 84790), BNIP3L mRNA, set 1 → 0.186
Value for NUDT12 (GeneID 83594) under “BNIP3L mRNA, set 1”: 0.102
Under “BNIP3L mRNA, set 1”, GPR3 (GeneID 2827) shows 0.144
SIN3A (GeneID 25942), BNIP3L mRNA, set 1: 0.38
Value of E2F5 (GeneID 1875) under “BNIP3L mRNA, set 1”: 0.0705
Under “BNIP3L mRNA, set 1”, NCOA2 (GeneID 10499) reads 0.0485

The list goes on:
PRKCB (GeneID 5579): BNIP3L mRNA, set 1 = 0.17
CEP44 (GeneID 80817): BNIP3L mRNA, set 1 = 0.101
SALL2 (GeneID 6297): BNIP3L mRNA, set 1 = 0.0372
CCDC6 (GeneID 8030): BNIP3L mRNA, set 1 = 0.125
WDR5 (GeneID 11091): BNIP3L mRNA, set 1 = 0.307
POLR2I (GeneID 5438): BNIP3L mRNA, set 1 = 0.0514
UQCR10 (GeneID 29796): BNIP3L mRNA, set 1 = 0.192
ATP2B1 (GeneID 490): BNIP3L mRNA, set 1 = 0.0659
ASIC4 (GeneID 55515): BNIP3L mRNA, set 1 = 0.356
PPP1R11 (GeneID 6992): BNIP3L mRNA, set 1 = 0.0765
BRDT (GeneID 676): BNIP3L mRNA, set 1 = 0.0561
KAZALD1 (GeneID 81621): BNIP3L mRNA, set 1 = 0.129
BMI1 (GeneID 648): BNIP3L mRNA, set 1 = 0.0687
ZBTB5 (GeneID 9925): BNIP3L mRNA, set 1 = 0.0593
SLBP (GeneID 7884): BNIP3L mRNA, set 1 = 0.0671
CSF3 (GeneID 1440): BNIP3L mRNA, set 1 = 0.135
